# Measured data: PubChem BioAssay AID1259424 (University of Nebraska Medical Center, 2018)
# Assay: 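Seek colon cancer survival genes behaving like KSR1, using a six-gene signature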 (primary screen)
# Cells: human HCT116 colon cancer cells
# Reagents: siRNA pool against human genes, 50 nM
# Measured: 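Log2 levels of six mRNAs (branched-DNA multiplex), adjusted by two reference genes and the non-targeting median, then scored against the average KSR1 knockdown pattern as Pearson r and euclidean distance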
# Direction: mean correlation with KSR1 profile and KSR1 correlation: higher = expression change more like KSR1 knockdown; mean distance from KSR1 profile: higher = expression change less like KSR1 knockdown
# In all, the deposit lists about 14,000 reagents; below is a part drawn at random. 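Higher correlation or smaller distance means closer resemblance to KSR1 loss; control wells, including KSR1 knockdowns, recur on many plates.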 A reagent listed more than once was tested more than once; the source does not tell the runs apart. Further read-outs or replicates are left out here. Not given: the time to read-out.
Gene,PubChem SID,mean correlation with KSR1 profile,mean distance from KSR1 profile,"KSR1 correlation, replicate 1"
HOXB5 (homeobox B5),SID363993351,0.212,7.95,0.462
MKRN3 (makorin ring finger protein 3),SID363996556,0.26,2.7,0.0764
IL1R2 (interleukin 1 receptor type 2),SID363995601,-0.423,1.73,-0.47
MEOX2 (mesenchyme homeobox 2),SID363996792,0.0489,1.93,0.061
FAM107B (family with sequence similarity 107 member B),SID364003636,0.511,1.83,0.356
ZNHIT3 (zinc finger HIT-type containing 3),SID363995730,-0.474,1.23,-0.081
SLC31A2,SID363993073,-0.308,2.38,-0.42
PSPH (phosphoserine phosphatase),SID363995548,-0.727,2.08,-0.608
SPN (sialophorin),SID363994264,-0.0468,2.19,0.127
SCO1 (synthesis of cytochrome C oxidase 1),SID363995560,0.468,2,0.46
GLRB (glycine receptor beta),SID363992112,-0.158,1.83,-0.36
COX8A (cytochrome c oxidase subunit 8A),SID363995084,-0.0117,1.73,0.217
IPCEF1 (interaction protein for cytohesin exchange factors 1),SID363999567,-0.342,1.17,-0.207
BRI3BP (BRI3 binding protein),SID364004489,0.104,1.02,-0.158
CDK13 (cyclin dependent kinase 13),SID363994787,0.104,1.82,0.0794
PPP1R16B (protein phosphatase 1 regulatory subunit 16B),SID363999577,0.906,1.83,0.908
SDC3 (syndecan 3),SID364005549,-0.288,2.06,-0.405
KEAP1 (kelch like ECH associated protein 1),SID363998205,-0.657,3.19,-0.58
"ASAP1 (ArfGAP with SH3 domain, ankyrin repeat and PH domain 1)",SID364001109,-0.433,3.46,-0.23
LRRC61 (leucine rich repeat containing 61),SID364002666,0.8,1.31,0.799
SOX14 (SRY-box transcription factor 14),SID363995193,-0.182,5.65,-0.292
CAP2 (cyclase associated actin cytoskeleton regulatory protein 2),SID363997182,0.0474,3.08,0.0876
CNTLN (centlein),SID364000485,-0.467,2.62,-0.531
KRT82 (keratin 82),SID364004290,-0.0847,2.5,-0.167
NOVA1 (NOVA alternative splicing regulator 1),SID363993687,0.582,0.985,0.626
CHMP1A (charged multivesicular body protein 1A),SID363993926,0.217,1.49,0.0868
TMEM214 (transmembrane protein 214),SID364000475,0.0592,2.67,-0.0925
TCF3 (transcription factor 3),SID363994333,0.0328,1.6,0.403
DDI2 (DDI proteasomal shuttling factor 2),SID363997308,0.431,1.24,0.451
DHX40 (DEAH-box helicase 40),SID364002913,0.473,2.09,0.407
NCKAP5L (NCK associated protein 5 like),SID364005085,-0.441,4.3,-0.412
UCKL1 (uridine-cytidine kinase 1 like 1),SID364000590,-0.278,2.26,0.652
YBX3 (Y-box binding protein 3),SID363994726,0.467,1.16,0.296
GDNF (glial cell derived neurotrophic factor),SID363991837,0.128,1.33,0.11
ACVR1C (activin A receptor type 1C),SID364004659,0.0988,2.3,0.0485
COX17 (cytochrome c oxidase copper chaperone COX17),SID363996584,0.471,1.21,0.374
CD160 (CD160 molecule),SID363997784,0.178,1.93,0.146
CA12 (carbonic anhydrase 12),SID363992503,-0.61,3.05,-0.581
MRE11 (MRE11 double strand break repair nuclease),SID363996486,-0.0647,1.35,-0.0968
ZC3H3 (zinc finger CCCH-type containing 3),SID363999312,0.273,2.1,0.158
CMKLR1 (chemerin chemokine-like receptor 1),SID363995082,0.35,2.94,0.379
DDX43 (DEAD-box helicase 43),SID364001164,-0.425,1.3,-0.694
FBXO38 (F-box protein 38),SID364003445,0.472,2.47,0.375
CACNA1B (calcium voltage-gated channel subunit alpha1 B),SID363992015,-0.513,1.63,-0.593
COA3 (cytochrome c oxidase assembly factor 3),SID363998554,-0.135,3.6,-0.158
EIF5B (eukaryotic translation initiation factor 5B),SID363999707,-0.494,1.51,-0.432
DDX59 (DEAD-box helicase 59),SID364003594,0.456,2.07,0.309
ADRA1A (adrenoceptor alpha 1A),SID363991979,0.586,1.47,0.612
ADRA1A (adrenoceptor alpha 1A),SID363991979,0.00626,2.96,0.195
HERC3 (HECT and RLD domain containing E3 ubiquitin protein ligase 3),SID363998977,-0.436,2.25,-0.386
CREBZF (CREB/ATF bZIP transcription factor),SID364002097,0.487,8.52,0.144
NLK (nemo like kinase),SID363999967,0.609,1.88,0.398
CAMLG (calcium modulating ligand),SID363992966,0.576,2.12,0.547
SIKE1 (suppressor of IKBKE 1),SID364003233,-0.0678,2.17,-0.0827
DNAJB5 (DnaJ heat shock protein family (Hsp40) member B5),SID363998188,0.221,1.3,0.368
RCAN2 (regulator of calcineurin 2),SID363996697,-0.49,3.35,-0.388
"RAP2C (RAP2C, member of RAS oncogene family)",SID364002070,-0.202,1.32,-0.396
UNC119 (unc-119 lipid binding chaperone),SID363996078,0.307,2.47,0.34
HNF1B (HNF1 homeobox B),SID363991789,0.632,1.27,0.549
HSPA14 (heat shock protein family A (Hsp70) member 14),SID364000016,0.443,2.54,0.494
ANKH (ANKH inorganic pyrophosphate transport regulator),SID364004446,-0.521,2.94,-0.494
"B4GALT5 (beta-1,4-galactosyltransferase 5)",SID363995733,-0.488,3.05,-0.565
ZNF135 (zinc finger protein 135),SID363994538,0.346,1.63,-0.0189
